From US8980830B2 (priority 2007, dated 2015)

How the values were obtained:
[1] = solid-phase peptide synthesis
[2] = Fmoc solid-phase peptide synthesis; Rink MBHA amide resin; HBTU (Boc); DIC/HOBT (Fmoc); BEPBT/DEPBT for PLA coupling and lactam formation; conditions: whole synthesis, scale 0.1 mmole
[3] = whole synthesis, analytical HPLC, Zorbax C8, 214 nm, MALDI or ESI-MS, scale of the general procedure 0.2 mmole (Boc), 0.1 mmole (Fmoc)

Substance	final HPLC purity ([1]; conjugation step, 214 nm)	final HPLC purity [1, 3]	further results
Glucagon Cys^24 Mal-PEG-20K	–	–	final HPLC purity ([1]; conjugation step, analytical HPLC, Zorbax C8, 214 nm, MALDI or ESI-MS): ˜90%
Glucagon Cys^29 Mal-PEG-5K	greater than 95%	–	–
HSQGTFTSDYSKYLDSRRAQDFVQWLMNTGPSSGAPPPS	–	greater than 95%	–
PLA TSDYSKYLDERRAKDFVQWLMDT (SEQ ID NO: 6)	–	95%	isolated yield ([1]; whole synthesis, overall, scale of the general procedure 0.2 mmole (Boc), 0.1 mmole (Fmoc)): 10˜15%; isolated mass ([1]; whole synthesis, scale 0.1 mmole): 20˜30 mg; crude mass [2]: 150 to 250 mg
[PLA6, E16K20(Lactam), C24(20 kDa), D28]G(6-29) (FTSDYSKYLDERRAKDFVCWLMDT; PLA6, E16-K20 lactam, 20 kDa PEG on C24, amide)	90% HPLC purity	–	–
Glucagon Cys^17 Mal-PEG-5K	aprox. 90%	–	–

For part of these data: Plain letter strings leave the end groups untold.
